Some of the results follow. Shown are side measurements of this screen, not its main read-out; they come without a call. Most of these compounds were active or inconclusive in the main read-out, so they are no random draw. The note in brackets gives the kind of curve behind each potency; many fits are weak.

A short description of this experiment: qHTS Assay for Identifying the Cell-Membrane Permeable IMPase Inhibitors. As to conditions: CHO-M1 cells, IP1 accumulation, HTRF TR-FRET ratio; measured here: donor channel 620 nm AC50. For orientation: qHTS replaces the single test concentration by a dilution series.
For orientation: AC50 means the midpoint of the concentration-response curve, whichever way the signal moves. As for `O=C(c1cc(-c2ccccn2)nc2ccc(Br)cc12)N1CCc2ccccc2C1`, the concentration at half-maximal activity (AC50) was 15.8 µM [rising, partial curve].

Regarding `CN1CCN(C(=O)c2ccc3c(=O)n(Cc4ccc(Cl)cc4)c(=S)[nH]c3c2)CC1`, the AC50 is 0.2 µM [falling, full curve, poor fit].

Take `CCCn1c(NCc2cccc(OC)c2O)nc2ccccc21`: the concentration at half-maximal activity (AC50) was 0.2 µM [falling, full curve]. As for `CC(C)NC(=O)c1cccc(Cn2cc(Cl)cn2)c1`, the figure is 0.0316 µM [falling, full curve]; as for `Cn1nc(C(F)(F)F)c(/C=N/OC(=O)c2ccccc2)c1SCc1ccc(Cl)cc1`, 0.316 µM [falling, full curve, poor fit]. As for `O=[N+]([O-])c1ccc(/C=N\N2CCN(c3ccc(Cl)cc3)CC2)cc1`, the figure is 31.6 µM [falling, single point]; as for `CS/C(=C\[N+](=O)[O-])Nc1ccccc1`, 6.31 µM [falling, single point]. As for `O=C(C1=C(O)C(=O)N(Cc2ccco2)C1c1cccnc1)c1cc2ccccc2o1` (stereo unspecified), the figure is 12.6 µM [rising, partial curve]; as for `COc1ccc(-n2c(COc3ccc(C)cc3)nnc2SCC(N)=O)cc1`, 3.16 µM [falling, partial curve]; as for `CCOc1cccc(C(=O)NC2CCCCC2)c1`, 5.62 µM [falling, partial curve, poor fit]. For `O=C(Nc1cccc2ccccc12)c1nn(C23CC4CC(CC(C4)C2)C3)cc1[N+](=O)[O-]`, the AC50 is 0.0126 µM [rising, full curve, poor fit].

Take `NC(=O)C[C@@H]1N[C@]2(C(=O)Nc3ccccc32)[C@@H]2C(=O)N(c3cc(C(F)(F)F)ccc3Cl)C(=O)[C@H]12`: the concentration at half-maximal activity (AC50) is 0.316 µM [falling, full curve]. Under `Cc1ccc(NC(=O)CN(c2ccccc2)S(=O)(=O)N(C)C)cc1C` stands 0.794 µM [falling, full curve]; under `CC1=C(C(=O)OC(C)C)C(c2ccc(C)o2)NC(=O)N1` (stereo unspecified), 0.2 µM [falling, full curve]; under `CCCCc1cc(=O)oc2cc(OCc3cc(OC)c(OC)c(OC)c3)c(Cl)cc12`, 5.01 µM [rising, single point]. Under `COc1cc(NC(=O)C2CCCN2C(=O)C2CCC(C)CC2)cc(OC)c1OC` (stereo unspecified) stands 5.62 µM [rising, single point]. For the compound `CCC(Sc1nc(-c2ccccc2)c(C#N)c(=O)[nH]1)C(=O)Nc1nnc(C)s1` (stereo unspecified), the concentration at half-maximal activity (AC50) is 12.6 µM [rising, partial curve]. As for `Cc1c(NC(=O)COC(=O)C2CC3C=CC2C3)c(=O)n(-c2ccccc2)n1C` (stereo unspecified), the figure is 3.98 µM [falling, partial curve]; as for `COc1cccc(/C=C/C(=O)OCC(=O)NCC2CCCO2)c1OC` (stereo unspecified), 1.12 µM [falling, full curve, poor fit]; as for `CCCCNC(=O)OCC(CC)NC(=O)OC(C)C` (stereo unspecified), 0.00398 µM [falling, full curve, poor fit]. Under `CCN(Cc1cc2cc(OC)ccc2[nH]c1=O)C(=O)Cc1ccc(OC)cc1` stands 15.8 µM [rising, single point]; under `O=C(NCC1CCCO1)c1onc(CSc2ccc(F)c(F)c2)c1C(=O)O` (stereo unspecified), 0.631 µM [rising, full curve, poor fit]. As for `COC(=O)CSc1nc(C)c(C(=O)Nc2ccccc2C)c(-c2ccc(Cl)cc2)c1C#N`, the figure is 35.5 µM [rising, single point]; as for `CCOc1ccccc1NC(=O)COC(=O)Cc1ccc(-c2ccccc2)cc1`, 35.5 µM [rising, single point]; as for `CCOc1ccc2c(c1)C(c1ccc(C)cc1)=NNC(c1ccc(C)cc1)=N2`, 0.631 µM [falling, full curve]. Consider `CCOC(=O)N1CCC(NC(=O)c2ccc3c(c2)N(Cc2ccc(C)cc2)CCS3)CC1`, for which the concentration at half-maximal activity (AC50) was 0.0355 µM [falling, full curve].

As for `O=C(Oc1ccccc1)Oc1ccc2c(c1)oc(=O)c1ccccc12`, the AC50 was 25.1 µM [rising, partial curve]. As for `CCOC(=O)CCc1c(C)c2ccc(OCc3ccc([N+](=O)[O-])cc3)cc2oc1=O`, the figure is 0.00158 µM [falling, full curve, poor fit]; as for `N#C/C(=C/c1ccc(N2CCOCC2)o1)c1nc2ccccc2[nH]1`, 0.794 µM [falling, single point]. Take `O=C(Nc1nnc(-c2ccccc2SCc2ccccc2)s1)Nc1ccccc1F`: the concentration at half-maximal activity (AC50) was 1 µM [rising, full curve]. Under `CC(=O)CC(C)=NCCN=C(C)CC(C)=O` stands 31.6 µM [falling, single point].

Take `O=C(O)CCCNc1cc(N2CCC3(CC2)OCCO3)c2noc3c2c1C(=O)c1ccccc1-3`: the concentration at half-maximal activity (AC50) is 20 µM [falling, partial curve, poor fit]. Under `CCOCC(=O)Nc1nc2c(s1)C(=O)CC(C)(C)C2` stands 11.2 µM [falling, partial curve, poor fit]; under `Cc1cc(OCCOCCN(C)CCO)cc(C)c1Cl`, 12.6 µM [falling, partial curve, poor fit]; under `O=C(CSc1nc(-c2ccccc2)nc2c1Cc1ccccc1O2)Nc1ccccc1`, 31.6 µM [rising, single point]. Under `CCOc1ccccc1NC(=O)Cc1ccccc1OC` stands 6.31 µM [rising, single point]; under `COC(=O)c1c(NC(=O)CN2C(=O)C(=O)N(CC(C)C)C2=O)sc2c1CCCCC2`, 0.0126 µM [rising, full curve, poor fit]; under `Cc1cccc2cc(C#N)c(SCC(=O)NCC3CCCO3)nc12` (stereo unspecified), 31.6 µM [rising, partial curve]. For `O=C(CSc1nnc(Cc2cccs2)n1C1CCCCC1)N1CCN(C(=O)c2ccco2)CC1`, the AC50 was 0.0251 µM [rising, full curve, poor fit]. As for `CC(Sc1ccc2ccccc2n1)C(=O)O` (stereo unspecified), the AC50 is 12.6 µM [rising, partial curve]. Under `CCOc1cc(C(=O)Nc2ccc3oc(-c4ccc(F)cc4Cl)nc3c2)cc(OCC)c1OCC` stands 4.47 µM [rising, single point].

The values are drawn from PubChem BioAssay AID901 (National Center for Advancing Translational Sciences (NCATS), 2007).
